Where a name gives a salt, the structure may show the parent alone. The list shows a part of the results. Repeats are few or missing, and single values can be far off.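 The strains were three CDC resistance-bank clinical C. auris isolates from clades III, IV and I, cultured in RPMI-1640 at 35°C. Growth was background-corrected OD600 versus vehicle-only wells on the same plate. A hit needed >50% inhibition in two or more strains plus a plate-corrected B-score exceeding 0.1.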
How the values were obtained:
Assay in all cases: growth relative to vehicle control (OD600 ratio) (fraction); higher = less inhibition
Settings in all cases: 24 h
C. auris AR-384 = system: C. auris AR-384
C. auris AR-386 = system: C. auris AR-386
C. auris AR-387 = system: C. auris AR-387

Row | SMILES | growth (C. auris AR-384; 1 µM) | growth (C. auris AR-384; 10 µM) | growth (C. auris AR-386; 1 µM) | growth (C. auris AR-386; 10 µM) | growth (C. auris AR-387; 1 µM) | growth (C. auris AR-387; 10 µM)
1 | CC(=O)Oc1ccc(C(c2ccc(OC(C)=O)cc2)c2ccccn2)cc1 [Bisacodyl] | 1.03 | 0.82 | 0.91 | 0.9 | 0.71 | 0.72
2 | Oc1c(Cl)cc(Cl)c2cccnc12 [Chloroxine] | 0.18 | 0 | 0.02 | 0.02 | 0.09 | 0.1
3 | CC(C)(C#N)c1cc(Cn2cncn2)cc(C(C)(C)C#N)c1 [Anastrozole] | 1.37 | 0.91 | 0.81 | 1.14 | 1.13 | 0.99
4 | CC(=O)OCC(=O)[C@@]12N=C(C)O[C@@H]1C[C@H]1[C@@H]3CCC4=CC(=O)C=C[C@]4(C)[C@H]3[C@@H](O)C[C@@]12C [Deflazacort] | 1.13 | 1.4 | 0.99 | 1.19 | 1.36 | 1.28
5 | CO[C@@H]1[C@@H](OC(N)=O)[C@@H](O)[C@H](Oc2ccc3c(O)c(NC(=O)c4ccc(O)c(CC=C(C)C)c4)c(=O)oc3c2C)OC1(C)C [Novobiocin Sodium] | 0.84 | 0.78 | 1.51 | 0.72 | 0.79 | 0.94
6 | CC(C)OC(=O)OCOP(=O)(CO[C@H](C)Cn1cnc2c(N)ncnc21)OCOC(=O)OC(C)C [Tenofovir Disoproxil Fumarate] | 1.04 | 0.72 | 0.74 | 0.99 | 1 | 1.1
7 | C[C@H]1C[C@H]2[C@@H]3CCC4=CC(=O)C=C[C@]4(C)[C@@]3(F)[C@@H](O)C[C@]2(C)[C@@]1(O)C(=O)CO [Betamethasone] | 0.61 | 0.51 | 0.9 | 0.81 | 1 | 0.92
8 | CCOc1ccc2nc(S(N)(=O)=O)sc2c1 [Ethoxzolamide] | 1.16 | 1.08 | 0.95 | 1.09 | 0.83 | 0.66
9 | OC(CCCN1CCCCC1)(c1ccccc1)c1ccccc1 [Diphenidol HCl] | 0.97 | 0.87 | 0.79 | 1.01 | 0.67 | 1.05
10 | Nc1nc(=O)n([C@@H]2CS[C@H](CO)O2)cc1F [Emtricitabine] | 0.97 | 0.72 | 0.72 | 0.7 | 0.99 | 0.84
11 | CC(C)(C)Cn1c(N)nc2ccc(-c3[nH]c(C(C)(C)C)nc3-c3ccc(F)cc3)nc21 | 0.72 | 1.33 | 0.9 | 1.14 | 0.91 | 0.91
12 | CC1=C(C(=O)O)N2C(=O)[C@@H](NC(=O)[C@H](N)C3=CCC=CC3)[C@H]2SC1 [Cefradine] | 1.34 | 1.29 | 1.13 | 1.25 | 1.22 | 1.24
13 | O=C(O)c1cc(/N=N/c2ccc(O)c(C(=O)O)c2)ccc1O [Olsalazine Sodium] | 0.96 | 0.82 | 0.68 | 0.95 | 0.75 | 1.05
14 | CC(C)(C)C#Cc1cc(N(C(=O)[C@H]2CC[C@H](C)CC2)[C@H]2CC[C@H](O)CC2)c(C(=O)O)s1 [Lomibuvir (VX-222, VCH-222)] | 1.19 | 1.2 | 1.11 | 0.76 | 0.85 | 1.04
15 | CCOC(=O)[N-]c1c[n+](N2CCOCC2)no1 [Molsidomine] | 0.71 | 0.83 | 0.9 | 0.48 | 0.88 | 0.78
16 | Cn1nnc(-c2ccc(-c3ccc(N4C[C@H](COP(=O)(O)O)OC4=O)cc3F)cn2)n1 [Tedizolid Phosphate] | 0.77 | 0.75 | 0.84 | 0.81 | 1.07 | 0.93
17 | CCCCCCOC(=O)NC(=N)c1ccc(NCc2nc3cc(C(=O)N(CCC(=O)OCC)c4ccccn4)ccc3n2C)cc1 [Dabigatran Etexilate] | 0.83 | 0.8 | 0.97 | 0.87 | 0.64 | 0.85
18 | O=C1C(CC[S+]([O-])c2ccccc2)C(=O)N(c2ccccc2)N1c1ccccc1 (racemic) [(+/-)-Sulfinpyrazone] | 0.92 | 0.81 | 0.96 | 0.92 | 1.01 | 1.09
19 | CC(C)c1cc(C(=O)N2Cc3ccc(CN4CCN(C)CC4)cc3C2)c(O)cc1O | 1.25 | 0.89 | 1.3 | 1.59 | 1.45 | 1.48
20 | C[C@@](Cc1ccc(O)c(O)c1)(NN)C(=O)O [Carbidopa] | 1.04 | 1.04 | 1.07 | 0.67 | 0.85 | 0.61
21 | CCOc1ccc(Cc2cc([C@@H]3O[C@H](SC)[C@@H](O)[C@H](O)[C@H]3O)ccc2Cl)cc1 [Sotagliflozin (LX4211)] | 1.19 | 1.3 | 1.19 | 1.36 | 1.37 | 1.44
22 | Cc1cccc(C)c1NC(=O)C1CCCCN1C (stereo unspecified) [Mepivacaine HCl] | 0.72 | 0.84 | 0.86 | 0.64 | 0.78 | 0.93
23 | CCc1cc(C(N)=S)ccn1 [Ethionamide] | 1.3 | 0.98 | 0.89 | 0.72 | 0.75 | 0.88
24 | CCCCC(CC)COC(=O)C(C#N)=C(c1ccccc1)c1ccccc1 (stereo unspecified) [Octocrylene] | 1.41 | 0.83 | 0.86 | 0.74 | 0.75 | 0.89
25 | Cc1[nH]c(=O)c(C#N)cc1-c1ccncc1 [Milrinone] | 1.05 | 0.81 | 0.71 | 1.08 | 1.03 | 0.96
26 | C=CC(=O)N1CCC[C@@H](n2nc(-c3ccc(Oc4ccccc4)cc3)c3c(N)ncnc32)C1 | 0.97 | 0.92 | 1.3 | 1.05 | 0.78 | 0.67

Reformatted in CSV form: two of the compounds above.
Row,SMILES,growth (C. auris AR-384; 1 µM),growth (C. auris AR-384; 10 µM),growth (C. auris AR-386; 1 µM),growth (C. auris AR-386; 10 µM),growth (C. auris AR-387; 1 µM),growth (C. auris AR-387; 10 µM)
17,CCCCCCOC(=O)NC(=N)c1ccc(NCc2nc3cc(C(=O)N(CCC(=O)OCC)c4ccccn4)ccc3n2C)cc1 [Dabigatran Etexilate],0.83,0.8,0.97,0.87,0.64,0.85
18,O=C1C(CC[S+]([O-])c2ccccc2)C(=O)N(c2ccccc2)N1c1ccccc1 (racemic) [(+/-)-Sulfinpyrazone],0.92,0.81,0.96,0.92,1.01,1.09

Reference: the supplement of paper PMC10470496
